Laboratory results: PubChem BioAssay AID662 (National Center for Advancing Translational Sciences (NCATS), 2007)
This is one part of the list. These are further read-outs of the screen, such as a control signal, another cell line or another target. No call is given for them. Compounds called inactive in the main read-out are mostly missing here. Potencies come from curve fits of mixed quality, noted in brackets.

Test: Cell signaling CRE-BLA (Fsk stim)
Conditions: CHO CRE-bla reporter (cAMP response element driving beta-lactamase), forskolin EC10, beta-lactamase ratio; measured here: 460 nm blue channel
Summary of the method: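 Titrated compounds plus EC10 NKH 477 on CHO CRE-bla cells, 3 h, 37 °C. CCF4, 2 h RT. Ratio 460/530 nm → AC50.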
For `Cc1ccc2c(c1)C(=O)[C@@]1(O)CCN(c3ccccc3)C1=N2`, the AC50 was 20 µM [falling, partial curve, poor fit]. In the case of `CC(=O)c1ccc(-n2nncc2C)cc1`, the AC50 is reported as 0.501 µM [falling, single point]. In the case of `Cn1nc(-c2ccc(Cl)cc2)c2cc(C(=O)NCCCN3CCOCC3)sc21`, the AC50 is reported as 5.01 µM [rising, partial curve]. In the case of `COc1ccc2c(c1)C=CC1(O2)N(CCO)c2ccccc2C1(C)C` (centres undefined), the AC50 is reported as 12.6 µM [rising, single point]. With `COc1ccc(OC)c(S(=O)(=O)Nc2c(F)cccc2F)c1` the AC50 was 0.00398 µM [falling, full curve, poor fit]. For `O=C(CN1CCN(c2ccc(Cl)cc2)CC1)c1ccc2c(c1)OCO2`, the AC50 was 0.398 µM [falling, full curve]. With `Cc1cc(C)cc(C(=O)/C=C2\NC(=O)CS2)c1` the AC50 was 2.51 µM [falling, full curve, poor fit]. For `C#CCNc1c(C)c(C)nc2ncnn12`, the AC50 was 10 µM [rising, partial curve]. In the case of `CC(C)Cn1cnc2c(N)nc3ccccc3c21`, the AC50 is reported as 0.501 µM [rising, partial curve, poor fit]. With `COc1nc(NC(C)=O)nc(C)c1Br` the AC50 was 12.6 µM [rising, partial curve]. With `Cc1ccc(S(=O)(=O)N2CCN(C(=O)N3CCOCC3)C2C)cc1` (centres undefined) the AC50 was 3.16 µM [falling, single point]. In the case of `c1ccc2c(SCc3cn4cccnc4n3)ncnc2c1`, the AC50 is reported as 10 µM [rising, single point]. In the case of `CCOC(=O)c1c(-c2ccc(C)o2)csc1NC(=O)CSc1nnnn1-c1ccccc1`, the AC50 is reported as 6.31 µM [rising, partial curve]. For `O=C(c1cccc(F)c1)N1CCN(c2cccc(Cl)c2)CC1`, the AC50 was 0.316 µM [rising, full curve, poor fit]. For `CC(=O)N(c1ccc(Cl)cc1)c1c[nH]c2ccccc12`, the AC50 was 0.00316 µM [falling, full curve, poor fit]. With `Cn1c(CSc2ccccc2)c(C#N)c2ccccc21` the AC50 was 31.6 µM [falling, single point]. With `O=C(CN1CCC(n2nnc3cc(F)ccc32)CC1)NC1CCCCC1` the AC50 was 10 µM [rising, single point]. For `CCNc1ncc2nc(C)c(=O)n(CCc3ccccc3)c2n1`, the AC50 was 3.98 µM [rising, partial curve]. For `O=C(c1ccccc1)N(Cc1cccs1)C1CCS(=O)(=O)C1` (centres undefined), the AC50 was 5.01 µM [falling, single point]. With `COCCn1c(=S)[nH]c2cc(OC)c(OC)cc2c1=O` the AC50 was 12.6 µM [rising, single point]. For `CNc1nc(-c2cccnc2)nc2ccccc12`, the AC50 was 10 µM [rising, single point]. For `c1ccc(CCc2ccccc2-c2nc(-c3cccnc3)no2)cc1`, the AC50 was 2.51 µM [rising, partial curve, poor fit]. With `COc1ccccc1C1C(C(C)=O)=C(O)C(=O)N1CCc1ccccc1` (centres undefined) the AC50 was 1.26 µM [falling, full curve, poor fit]. For `COc1ccc(-n2c(SCC(=O)Nc3cc(C)on3)nc3c(c2=O)SCC3)cc1`, the AC50 was 0.631 µM [falling, single point]. In the case of `CN(C)c1ncc2nc(-c3cccc(C#N)c3)c(=O)n(C[C@H]3CCCO3)c2n1`, the AC50 is reported as 6.31 µM [rising, partial curve]. With `Cc1noc(C)c1C(=O)Nc1sc2c(c1C(N)=O)CCC2` the AC50 was 6.31 µM [rising, partial curve]. With `NC(=O)c1cc2n(n1)C(C(F)(F)F)CC(c1ccco1)N2` (centres undefined) the AC50 was 0.794 µM [falling, full curve, poor fit]. With `COc1ccc(C(c2nnnn2Cc2cccs2)N2CCN(c3ccccc3F)CC2)cc1` (centres undefined) the AC50 was 10 µM [falling, partial curve]. With `CCCn1c(SCC(=O)OCc2ccccc2)nc2c1c(=O)n(C)c(=O)n2C` the AC50 was 7.94 µM [rising, partial curve]. In the case of `C=CCn1c(N)c(C(=O)OC(C)CC)c2nc3ccccc3nc21` (centres undefined), the AC50 is reported as 10 µM [rising, partial curve]. In the case of `COc1cccc(-c2nnc(SCc3nc4ccccc4[nH]3)n2N)c1`, the AC50 is reported as 15.8 µM [rising, single point]. In the case of `CCOC(=O)c1c(NC(C)=O)sc2c1CCCNC2=O`, the AC50 is reported as 10 µM [rising, partial curve]. In the case of `O=C(CN1C(=O)c2cccc3cccc1c23)Nc1ccc2c(c1)OCO2`, the AC50 is reported as 25.1 µM [rising, single point]. With `O=C(CN1CCN(S(=O)(=O)c2ccc(Cl)cc2)CC1)Nc1ccc2c(c1)OCO2` the AC50 was 0.158 µM [falling, full curve]. With `O=C1NC2=C(C(=O)c3ccccc32)C(c2ccccc2)N1` (centres undefined) the AC50 was 20 µM [rising, single point]. For `COc1cccc(CNCc2ccccn2)c1OC`, the AC50 was 0.794 µM [falling, full curve, poor fit]. In the case of `O=c1n(Cc2ccccc2Cl)c2sc3c(c2c2ncnn12)CCCC3`, the AC50 is reported as 2 µM [rising, partial curve, poor fit]. For `O=C(O)C1CCCCC1C(=O)Nc1cnn(Cc2ccccc2)c1` (centres undefined), the AC50 was 0.126 µM [falling, single point]. In the case of `N#CC1=C(N)C(C#N)(C#N)[C@H](c2c(F)cccc2F)[C@H]2CC3(CC=C12)OCCO3`, the AC50 is reported as 25.1 µM [rising, single point]. With `CC1=C(C(=O)OC(C)C)C(c2cccnc2)C2=C(CCCC2=O)N1` (centres undefined) the AC50 was 12.6 µM [rising, partial curve]. With `COc1ccc(-c2nc(SC)n(C)c(=O)c2C#N)cc1OC` the AC50 was 5.01 µM [rising, partial curve]. For `Cc1cc(=O)oc2cc(OC(C)C)ccc12`, the AC50 was 10 µM [rising, single point]. With `CC1(C)OC(=O)C(=CNn2cnc3ccccc3c2=O)C(=O)O1` the AC50 was 25.1 µM [rising, single point]. With `Cc1cc(C)c(NC(=O)CS(=O)CC(=O)N2CCN(c3ccc(F)cc3)CC2)c(C)c1` (centres undefined) the AC50 was 3.16 µM [rising, single point]. With `O=c1c(CCc2ccccc2)nc2cnc(N3CCNCC3)nc2n1Cc1ccc(F)cc1` the AC50 was 15.8 µM [rising, single point]. For `COc1ccc(NC(=O)C2=C(C)NC(=O)NC2c2cccc(OC)c2OC)c(OC)c1` (centres undefined), the AC50 was 1 µM [falling, partial curve, poor fit]. In the case of `Cc1nc2ccccc2c2oc(C(=O)NC3CC3)cc12`, the AC50 is reported as 7.94 µM [rising, partial curve]. With `N#Cc1cc2c(nc1SCc1cccnc1)CCCC2` the AC50 was 12.6 µM [rising, partial curve]. With `COC(=O)[C@@H]1[C@H]2C[C@H]3c4[nH]c5cc(OC)ccc5c4CCN3C[C@@H]2C[C@@H](OC(=O)c2cc(OC)c(OC)c(OC)c2)[C@@H]1OC` the AC50 was 0.0251 µM [rising, full curve]. In the case of `O=C(Nc1cccc2ncccc12)c1cccnc1`, the AC50 is reported as 25.1 µM [rising, single point]. With `Cc1ccc2nc(NC(=O)C3CCCN(S(=O)(=O)c4cnc[nH]4)C3)sc2c1` (centres undefined) the AC50 was 10 µM [falling, partial curve]. For `O=C(O)c1ccc2cc[nH]c2c1`, the AC50 was 6.31 µM [rising, partial curve]. For `CC(C)[C@H](NC(=O)NC1CCCC1)C(=O)O`, the AC50 was 10 µM [falling, partial curve, poor fit]. For `c1ccc2c(Nc3ccncc3)nc(-c3ccc4c(c3)OCO4)nc2c1`, the AC50 was 2 µM [rising, full curve]. In the case of `CN(C)CCCNC(=O)c1ccc2[nH]c3ccccc3c2c1`, the AC50 is reported as 0.316 µM [falling, partial curve]. With `Cc1onc(-c2ccccc2Cl)c1C(=O)NCc1ccco1` the AC50 was 12.6 µM [falling, single point]. For `COc1ccc(C(=O)Nc2ccncc2)cc1OC`, the AC50 was 5.01 µM [rising, partial curve]. In the case of `CCOC(=O)c1c(NC(=O)CSc2n[nH]c(N)n2)sc(CC)c1C`, the AC50 is reported as 7.94 µM [rising, partial curve]. For `CN1CCN(C(CNS(=O)(=O)c2ccc(Cl)cc2)c2cccnc2)CC1` (centres undefined), the AC50 was 5.01 µM [falling, partial curve, poor fit]. In the case of `Cc1ccc(C[C@H](Cc2nc3ccccc3[nH]2)c2nc3ccccc3[nH]2)cc1`, the AC50 is reported as 15.8 µM [rising, partial curve]. For `O=C(NCc1cccs1)C1CCN(S(=O)(=O)c2cccs2)CC1`, the AC50 was 0.126 µM [falling, full curve, poor fit]. In the case of `Cc1nc2ccc(NC(=O)Nc3ccnc4cccnc34)cc2o1`, the AC50 is reported as 31.6 µM [falling, single point]. With `CCC(CC)C(=O)Nc1cccc(-c2nc3ccccc3o2)c1` the AC50 was 12.6 µM [rising, single point]. In the case of `Cc1ccc(-c2ccc(SCC(=O)Nc3nonc3C)nn2)cc1`, the AC50 is reported as 0.398 µM [falling, partial curve]. For `O=C(Nc1ccc2nsnc2c1)c1cccs1`, the AC50 was 15.8 µM [rising, single point]. With `Cc1nc2oc3c(NCc4ccccc4)ncnc3c2c2c1COC(C)(C)C2` the AC50 was 10 µM [rising, partial curve]. In the case of `COc1ccc(CNc2ccnc(-c3cccc(C#N)c3)n2)c(OC)c1`, the AC50 is reported as 3.16 µM [rising, single point]. With `CSc1nc2ccccc2n1Cc1cccc(F)c1` the AC50 was 5.01 µM [rising, partial curve]. For `CCCOc1ccc(C(=O)N2CCN(c3ccc(NC(=O)CC)cc3Cl)CC2)cc1`, the AC50 was 0.0158 µM [falling, full curve, poor fit].
